Reference: the supplement of paper PMC6411743
± gives the standard deviation of the averaged measurements. This is one part of the list.

Protein sequences, listed by entry. Tags and fused reporters are not part of them. Lines headed by an entry give the natural chain unless they say otherwise; changes in a name come on top.
UniProt P63167, whole entry: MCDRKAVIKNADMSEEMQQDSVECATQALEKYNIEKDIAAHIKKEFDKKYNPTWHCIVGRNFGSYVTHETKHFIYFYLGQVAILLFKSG
UniProt P52298: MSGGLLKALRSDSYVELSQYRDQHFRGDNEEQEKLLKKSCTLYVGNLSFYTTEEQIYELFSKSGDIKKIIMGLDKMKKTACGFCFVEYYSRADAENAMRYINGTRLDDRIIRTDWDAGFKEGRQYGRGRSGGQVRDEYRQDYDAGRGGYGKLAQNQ
UniProt P54619: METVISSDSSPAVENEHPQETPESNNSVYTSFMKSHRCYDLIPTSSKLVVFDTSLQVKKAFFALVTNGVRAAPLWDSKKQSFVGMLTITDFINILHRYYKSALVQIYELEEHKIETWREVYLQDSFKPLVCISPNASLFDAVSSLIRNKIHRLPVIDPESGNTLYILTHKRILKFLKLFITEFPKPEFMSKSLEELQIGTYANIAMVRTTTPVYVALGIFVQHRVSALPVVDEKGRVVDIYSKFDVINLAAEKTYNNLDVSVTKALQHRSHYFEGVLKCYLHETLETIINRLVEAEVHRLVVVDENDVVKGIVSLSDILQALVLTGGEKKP
UniProt P53602: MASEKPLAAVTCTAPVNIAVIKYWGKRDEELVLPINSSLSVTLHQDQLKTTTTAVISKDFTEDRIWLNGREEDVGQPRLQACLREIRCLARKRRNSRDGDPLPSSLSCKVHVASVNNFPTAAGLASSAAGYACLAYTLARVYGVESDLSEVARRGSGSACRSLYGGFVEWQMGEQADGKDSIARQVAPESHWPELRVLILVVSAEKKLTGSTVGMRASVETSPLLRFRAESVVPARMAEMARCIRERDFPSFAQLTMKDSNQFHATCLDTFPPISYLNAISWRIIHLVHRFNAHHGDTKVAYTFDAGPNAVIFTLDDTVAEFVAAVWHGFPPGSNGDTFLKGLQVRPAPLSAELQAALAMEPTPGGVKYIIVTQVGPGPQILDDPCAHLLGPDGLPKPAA
UniProt P54577: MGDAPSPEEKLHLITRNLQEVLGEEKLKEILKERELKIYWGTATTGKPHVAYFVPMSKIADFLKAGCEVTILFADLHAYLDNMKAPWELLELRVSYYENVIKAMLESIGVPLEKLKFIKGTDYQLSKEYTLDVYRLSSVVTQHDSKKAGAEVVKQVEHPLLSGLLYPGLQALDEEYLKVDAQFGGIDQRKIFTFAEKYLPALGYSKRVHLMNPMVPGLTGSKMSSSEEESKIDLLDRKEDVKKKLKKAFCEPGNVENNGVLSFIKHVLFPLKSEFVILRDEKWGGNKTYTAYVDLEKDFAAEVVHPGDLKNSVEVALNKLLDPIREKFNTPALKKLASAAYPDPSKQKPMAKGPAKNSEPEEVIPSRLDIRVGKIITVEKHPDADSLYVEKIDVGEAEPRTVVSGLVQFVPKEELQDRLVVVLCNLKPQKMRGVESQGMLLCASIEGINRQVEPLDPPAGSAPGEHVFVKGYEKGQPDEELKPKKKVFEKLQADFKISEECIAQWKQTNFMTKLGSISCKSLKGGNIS
UniProt Q00537: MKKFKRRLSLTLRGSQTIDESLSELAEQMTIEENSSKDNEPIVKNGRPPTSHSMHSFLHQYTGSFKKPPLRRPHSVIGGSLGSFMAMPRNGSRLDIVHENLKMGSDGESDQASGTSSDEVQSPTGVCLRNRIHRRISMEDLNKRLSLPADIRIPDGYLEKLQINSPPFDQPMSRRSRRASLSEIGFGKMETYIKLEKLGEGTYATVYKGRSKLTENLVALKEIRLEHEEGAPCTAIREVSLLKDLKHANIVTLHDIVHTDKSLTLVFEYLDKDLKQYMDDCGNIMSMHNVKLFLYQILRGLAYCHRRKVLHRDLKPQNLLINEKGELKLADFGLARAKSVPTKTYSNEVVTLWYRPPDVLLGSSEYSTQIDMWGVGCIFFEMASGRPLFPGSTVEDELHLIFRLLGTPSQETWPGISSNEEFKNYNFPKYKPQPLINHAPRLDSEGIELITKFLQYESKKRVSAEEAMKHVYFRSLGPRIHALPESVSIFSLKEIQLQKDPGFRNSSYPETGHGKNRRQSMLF
UniProt P57081: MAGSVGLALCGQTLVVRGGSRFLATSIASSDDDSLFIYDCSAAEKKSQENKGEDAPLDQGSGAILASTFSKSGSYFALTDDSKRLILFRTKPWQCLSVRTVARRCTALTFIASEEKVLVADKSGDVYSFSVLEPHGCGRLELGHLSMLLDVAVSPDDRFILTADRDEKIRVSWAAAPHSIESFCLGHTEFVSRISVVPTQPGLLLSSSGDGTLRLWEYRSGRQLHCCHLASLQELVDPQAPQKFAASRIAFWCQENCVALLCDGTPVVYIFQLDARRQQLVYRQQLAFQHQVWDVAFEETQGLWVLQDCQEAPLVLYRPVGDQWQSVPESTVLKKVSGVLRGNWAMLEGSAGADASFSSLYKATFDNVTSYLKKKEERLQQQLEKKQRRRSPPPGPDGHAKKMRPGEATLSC
UniProt Q00535, whole entry, looked up: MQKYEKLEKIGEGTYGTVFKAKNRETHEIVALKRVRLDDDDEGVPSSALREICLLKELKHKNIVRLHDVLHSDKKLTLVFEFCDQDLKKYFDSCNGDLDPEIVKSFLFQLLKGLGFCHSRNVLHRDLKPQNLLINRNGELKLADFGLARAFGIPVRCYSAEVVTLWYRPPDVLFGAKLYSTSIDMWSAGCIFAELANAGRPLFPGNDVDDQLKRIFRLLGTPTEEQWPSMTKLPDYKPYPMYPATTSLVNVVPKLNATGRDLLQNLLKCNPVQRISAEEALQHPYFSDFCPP
UniProt P56134: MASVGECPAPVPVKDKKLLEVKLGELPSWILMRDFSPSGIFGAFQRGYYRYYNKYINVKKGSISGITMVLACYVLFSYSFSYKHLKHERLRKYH
UniProt P55809: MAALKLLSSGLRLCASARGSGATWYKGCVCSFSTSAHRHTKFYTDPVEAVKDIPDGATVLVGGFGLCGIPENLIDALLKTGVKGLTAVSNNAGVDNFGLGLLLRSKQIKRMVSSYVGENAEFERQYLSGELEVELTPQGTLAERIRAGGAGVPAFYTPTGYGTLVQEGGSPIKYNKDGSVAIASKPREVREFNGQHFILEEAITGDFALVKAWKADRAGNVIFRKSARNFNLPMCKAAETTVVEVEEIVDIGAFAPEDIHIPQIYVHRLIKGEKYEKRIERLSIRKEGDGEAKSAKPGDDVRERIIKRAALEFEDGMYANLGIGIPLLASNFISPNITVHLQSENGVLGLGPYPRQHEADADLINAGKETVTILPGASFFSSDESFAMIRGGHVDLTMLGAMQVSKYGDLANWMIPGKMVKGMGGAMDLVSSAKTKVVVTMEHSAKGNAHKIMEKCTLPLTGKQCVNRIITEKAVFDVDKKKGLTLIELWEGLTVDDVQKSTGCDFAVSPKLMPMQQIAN
UniProt P61225: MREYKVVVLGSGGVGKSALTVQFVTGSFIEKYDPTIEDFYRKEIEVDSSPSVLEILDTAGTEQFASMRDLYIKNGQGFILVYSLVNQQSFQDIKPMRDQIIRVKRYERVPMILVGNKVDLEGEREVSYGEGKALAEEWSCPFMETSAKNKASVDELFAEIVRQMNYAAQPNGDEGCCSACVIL
UniProt P58557: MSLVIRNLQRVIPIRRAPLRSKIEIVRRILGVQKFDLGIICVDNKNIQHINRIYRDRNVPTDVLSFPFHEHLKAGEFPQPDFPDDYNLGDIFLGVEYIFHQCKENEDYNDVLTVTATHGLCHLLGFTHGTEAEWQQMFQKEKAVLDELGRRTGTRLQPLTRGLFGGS
UniProt P53677: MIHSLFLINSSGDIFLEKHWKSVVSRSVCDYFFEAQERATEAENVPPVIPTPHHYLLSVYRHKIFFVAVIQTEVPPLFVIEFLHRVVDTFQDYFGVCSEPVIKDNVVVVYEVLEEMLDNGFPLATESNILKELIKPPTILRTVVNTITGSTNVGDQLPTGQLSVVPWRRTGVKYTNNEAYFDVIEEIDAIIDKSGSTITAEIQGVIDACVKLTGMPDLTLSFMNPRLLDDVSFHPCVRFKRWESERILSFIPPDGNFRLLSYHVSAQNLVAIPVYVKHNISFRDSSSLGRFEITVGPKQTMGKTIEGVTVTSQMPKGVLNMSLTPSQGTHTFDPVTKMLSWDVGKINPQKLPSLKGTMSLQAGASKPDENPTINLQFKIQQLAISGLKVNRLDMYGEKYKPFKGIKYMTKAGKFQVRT
UniProt P51532, whole entry: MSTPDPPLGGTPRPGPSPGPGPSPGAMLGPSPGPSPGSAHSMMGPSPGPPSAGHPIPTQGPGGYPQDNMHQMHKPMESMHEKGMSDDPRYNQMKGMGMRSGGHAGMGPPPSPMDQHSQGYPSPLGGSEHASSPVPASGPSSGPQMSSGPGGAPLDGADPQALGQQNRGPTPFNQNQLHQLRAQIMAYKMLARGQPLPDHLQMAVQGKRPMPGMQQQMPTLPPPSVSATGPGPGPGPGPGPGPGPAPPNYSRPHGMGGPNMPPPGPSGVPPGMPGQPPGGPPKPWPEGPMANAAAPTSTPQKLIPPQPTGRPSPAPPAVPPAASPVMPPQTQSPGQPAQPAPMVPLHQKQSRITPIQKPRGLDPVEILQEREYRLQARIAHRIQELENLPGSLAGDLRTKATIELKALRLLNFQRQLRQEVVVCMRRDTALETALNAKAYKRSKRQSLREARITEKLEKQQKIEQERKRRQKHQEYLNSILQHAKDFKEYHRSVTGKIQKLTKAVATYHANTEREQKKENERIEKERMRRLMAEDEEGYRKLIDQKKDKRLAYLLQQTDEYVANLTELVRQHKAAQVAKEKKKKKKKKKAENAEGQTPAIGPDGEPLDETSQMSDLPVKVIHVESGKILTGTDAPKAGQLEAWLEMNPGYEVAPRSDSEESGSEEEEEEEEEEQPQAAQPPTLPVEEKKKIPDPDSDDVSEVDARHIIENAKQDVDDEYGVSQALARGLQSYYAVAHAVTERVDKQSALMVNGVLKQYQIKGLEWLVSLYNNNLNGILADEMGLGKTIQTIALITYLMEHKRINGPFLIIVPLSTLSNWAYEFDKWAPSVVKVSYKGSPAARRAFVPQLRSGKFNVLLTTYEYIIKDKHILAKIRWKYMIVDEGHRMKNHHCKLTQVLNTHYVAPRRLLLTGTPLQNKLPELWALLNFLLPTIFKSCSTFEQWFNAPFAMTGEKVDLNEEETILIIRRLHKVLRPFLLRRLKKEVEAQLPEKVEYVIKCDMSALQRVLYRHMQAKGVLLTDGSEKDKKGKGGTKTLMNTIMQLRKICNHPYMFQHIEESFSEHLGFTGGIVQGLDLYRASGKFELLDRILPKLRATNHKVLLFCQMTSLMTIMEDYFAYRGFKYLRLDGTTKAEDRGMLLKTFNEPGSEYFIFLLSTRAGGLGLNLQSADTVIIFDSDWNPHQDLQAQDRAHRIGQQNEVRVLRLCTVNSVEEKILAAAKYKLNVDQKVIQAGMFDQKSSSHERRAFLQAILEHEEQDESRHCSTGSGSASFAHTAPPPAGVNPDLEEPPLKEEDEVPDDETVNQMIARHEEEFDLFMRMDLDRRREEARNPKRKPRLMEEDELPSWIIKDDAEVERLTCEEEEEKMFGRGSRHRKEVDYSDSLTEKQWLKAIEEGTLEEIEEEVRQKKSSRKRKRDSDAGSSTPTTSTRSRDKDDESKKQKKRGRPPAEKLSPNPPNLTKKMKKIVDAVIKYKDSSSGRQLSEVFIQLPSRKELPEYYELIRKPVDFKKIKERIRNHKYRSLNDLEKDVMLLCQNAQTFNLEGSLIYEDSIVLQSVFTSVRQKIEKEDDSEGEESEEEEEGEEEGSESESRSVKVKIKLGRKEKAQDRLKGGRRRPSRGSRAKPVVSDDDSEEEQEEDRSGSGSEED
UniProt P78406: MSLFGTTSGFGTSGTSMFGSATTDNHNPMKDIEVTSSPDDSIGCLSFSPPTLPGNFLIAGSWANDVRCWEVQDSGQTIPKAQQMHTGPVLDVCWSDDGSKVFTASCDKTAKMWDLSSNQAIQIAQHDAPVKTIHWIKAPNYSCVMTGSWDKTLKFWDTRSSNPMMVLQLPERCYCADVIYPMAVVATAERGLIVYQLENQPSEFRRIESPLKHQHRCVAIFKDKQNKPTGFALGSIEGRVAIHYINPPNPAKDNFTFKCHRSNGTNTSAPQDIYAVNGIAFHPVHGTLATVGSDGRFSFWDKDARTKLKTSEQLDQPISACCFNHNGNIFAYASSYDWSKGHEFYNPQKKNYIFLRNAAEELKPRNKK
UniProt Q00013: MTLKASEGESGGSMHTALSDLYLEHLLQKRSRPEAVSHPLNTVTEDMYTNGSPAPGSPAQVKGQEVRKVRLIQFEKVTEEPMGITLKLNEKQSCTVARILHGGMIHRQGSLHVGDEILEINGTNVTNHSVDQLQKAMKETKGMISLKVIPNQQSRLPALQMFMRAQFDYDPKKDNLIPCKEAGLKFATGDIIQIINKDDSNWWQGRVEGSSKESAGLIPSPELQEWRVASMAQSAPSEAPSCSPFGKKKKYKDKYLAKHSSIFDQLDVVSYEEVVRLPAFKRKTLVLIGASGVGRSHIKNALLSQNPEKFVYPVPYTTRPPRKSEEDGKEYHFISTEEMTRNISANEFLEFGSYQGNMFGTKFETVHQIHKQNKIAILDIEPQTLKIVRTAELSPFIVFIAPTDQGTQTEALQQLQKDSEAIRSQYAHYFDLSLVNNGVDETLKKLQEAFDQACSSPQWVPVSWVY

compound: Nc1nc2c(ncn2[C@@H]2O[C@H](COP(=O)(O)OP(=O)(O)OP(=O)(O)O)[C@@H](O)[C@H]2O)c(=O)[nH]1 [guanosine triphosphate]; assay: NP40-soluble protein abundance relative to vehicle (solubility fold change) (ratio); higher = more soluble protein in presence of GTP; conditions: concentration: 0.1mM
Summary of the method: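 Jurkat crude lysate (Dounce-homogenised) was treated with eight concentrations from 0.1 to 10 mM for 10 min at room temperature, then 3 min at 37 °C. It was solubilised with 0.8% NP40 and benzonase (60 min, 4 °C) and ultracentrifuged, and the supernatant was TMT-labelled for LC-MS/MS. Intensities were vsn-normalised, and the value is the fold change against the NP40-processed vehicle per replicate, from three independent experiments.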

Target	NP40-soluble protein abundance
UniProt P63167	0.862 ± 0.085
UniProt P84103 and related entries	1 ± 0.04
NCBP2 (UniProt P52298)	0.991 ± 0.029
UniProt P54619 and related entries	1.07 ± 0.051
NCS1 (UniProt P62166)	0.952 ± 0.091
MVD (UniProt P53602)	0.989 ± 0.049
UniProt P52758	0.945 ± 0.088
UniProt P54578 and related entries	0.975 ± 0.029
YARS (UniProt P54577)	0.952 ± 0.037
UniProt Q00537 and related entries	1.07 ± 0.066
ST13 (UniProt P50502)	0.848 ± 0.04
SUB1 (UniProt P53999)	0.83 ± 0.063
UniProt P57081 and related entries	0.989 ± 0.038
FXR2 (UniProt P51116)	1.08 ± 0.054
RBM6 (UniProt P78332)	1.02 ± 0.025
GALK1 (UniProt P51570)	1.007 ± 0.0096
UniProt P67870 and related entries	1.01 ± 0.021
CDK5 (UniProt Q00535)	1.06 ± 0.015
UniProt P57076	0.937 ± 0.047
UniProt P56134 and related entries	1.04 ± 0.12

Target	NP40-soluble protein abundance
OXCT1 (UniProt P55809)	0.939 ± 0.04
ARF3 (UniProt P61204)	1.03 ± 0.09
UniProt P61225	0.926 ± 0.046
YBEY (UniProt P58557)	1.02 ± 0.12
UniProt P63092-2|P63092-3|P63092 and related entries	0.973 ± 0.013
AP3M2 (UniProt P53677)	0.965 ± 0.17
RPL7A (UniProt P62424)	0.939 ± 0.014
UniProt P51532 and related entries	1.016 ± 0.0073
UniProt P55769	0.888 ± 0.054
UniProt P62081	0.964 ± 0.091
UniProt P82912 and related entries	1.14 ± 0.059
UniProt P78406 and related entries	0.96 ± 0.035
UniProt P62269	0.958 ± 0.095
UniProt P63000 and related entries	0.955 ± 0.12
UniProt P62913 and related entries	1.03 ± 0.037
UniProt P62277	0.945 ± 0.11
UniProt P61966	1.06 ± 0.025
MPP1 (UniProt Q00013)	1.011 ± 0.0097
UniProt P53990 and related entries	0.936 ± 0.04

same assay, conditions: concentration: 0.5mM

Target	NP40-soluble protein abundance
UniProt P63167	0.908 ± 0.074
UniProt P84103 and related entries	1.09 ± 0.074
NCBP2 (UniProt P52298)	0.992 ± 0.041
UniProt P54619 and related entries	1.06 ± 0.082
NCS1 (UniProt P62166)	0.944 ± 0.12
MVD (UniProt P53602)	0.97 ± 0.037
UniProt P52758	0.875 ± 0.047
UniProt P54578 and related entries	0.998 ± 0.021
YARS (UniProt P54577)	0.969 ± 0.029
UniProt Q00537 and related entries	1.08 ± 0.094
ST13 (UniProt P50502)	0.785 ± 0.09
SUB1 (UniProt P53999)	0.786 ± 0.031
UniProt P57081 and related entries	1.05 ± 0.053
FXR2 (UniProt P51116)	1.13 ± 0.081
RBM6 (UniProt P78332)	1.01 ± 0.034
GALK1 (UniProt P51570)	1.02 ± 0.02
UniProt P67870 and related entries	0.9932 ± 0.0051
CDK5 (UniProt Q00535)	1.04 ± 0.019
UniProt P57076	0.878 ± 0.076
UniProt P56134 and related entries	0.968 ± 0.037

Target	NP40-soluble protein abundance
OXCT1 (UniProt P55809)	0.962 ± 0.045
ARF3 (UniProt P61204)	1.05 ± 0.092
UniProt P61225	1 ± 0.04
YBEY (UniProt P58557)	1.03 ± 0.14
UniProt P63092-2|P63092-3|P63092 and related entries	0.9607 ± 0.0034
AP3M2 (UniProt P53677)	1.09 ± 0.16
RPL7A (UniProt P62424)	0.939 ± 0.019
UniProt P51532 and related entries	1.07 ± 0.045
UniProt P55769	0.893 ± 0.024
UniProt P62081	1.04 ± 0.056
UniProt P82912 and related entries	1.15 ± 0.13
UniProt P78406 and related entries	0.975 ± 0.073
UniProt P62269	0.912 ± 0.11
UniProt P63000 and related entries	0.991 ± 0.15
UniProt P62913 and related entries	1.04 ± 0.057
UniProt P62277	0.964 ± 0.11
UniProt P61966	1.103 ± 0.011
MPP1 (UniProt Q00013)	1 ± 0.036
UniProt P53990 and related entries	0.907 ± 0.045

same assay, conditions: concentration: 1mM

Target	NP40-soluble protein abundance
UniProt P63167	1.08 ± 0.12
UniProt P84103 and related entries	1.11 ± 0.044
NCBP2 (UniProt P52298)	1.02 ± 0.036
UniProt P54619 and related entries	0.994 ± 0.035
NCS1 (UniProt P62166)	0.9888 ± 0.0021
MVD (UniProt P53602)	0.944 ± 0.068
UniProt P52758	0.935 ± 0.062
UniProt P54578 and related entries	0.935 ± 0.027
YARS (UniProt P54577)	0.92 ± 0.042
UniProt Q00537 and related entries	1.08 ± 0.044
ST13 (UniProt P50502)	0.879 ± 0.051
SUB1 (UniProt P53999)	0.908 ± 0.024
UniProt P57081 and related entries	1 ± 0.037
FXR2 (UniProt P51116)	1.27 ± 0.064
RBM6 (UniProt P78332)	1.05 ± 0.055
GALK1 (UniProt P51570)	0.993 ± 0.019
UniProt P67870 and related entries	0.998 ± 0.034
CDK5 (UniProt Q00535)	0.96 ± 0.037
UniProt P57076	0.982 ± 0.064
UniProt P56134 and related entries	1.08 ± 0.17

Target	NP40-soluble protein abundance
OXCT1 (UniProt P55809)	0.905 ± 0.038
ARF3 (UniProt P61204)	0.925 ± 0.039
UniProt P61225	0.969 ± 0.065
YBEY (UniProt P58557)	1.03 ± 0.086
UniProt P63092-2|P63092-3|P63092 and related entries	0.922 ± 0.025
AP3M2 (UniProt P53677)	1 ± 0.019
RPL7A (UniProt P62424)	0.975 ± 0.085
UniProt P51532 and related entries	1.1 ± 0.083
UniProt P55769	1.06 ± 0.089
UniProt P62081	1.11 ± 0.13
UniProt P82912 and related entries	1.3 ± 0.24
UniProt P78406 and related entries	0.946 ± 0.061
UniProt P62269	0.982 ± 0.15
UniProt P63000 and related entries	0.962 ± 0.078
UniProt P62913 and related entries	1.1 ± 0.11
UniProt P62277	1.03 ± 0.22
UniProt P61966	1.08 ± 0.11
MPP1 (UniProt Q00013)	0.96 ± 0.025
UniProt P53990 and related entries	0.963 ± 0.075
